Some of the results follow. The main result of the screen is listed elsewhere. These columns were measured beside it and carry no call. Most of these compounds were active or inconclusive in the main read-out, so they are no random draw. Potencies come from curve fits of mixed quality, noted in brackets.
Assay: qHTS Assay for Lipid Storage Modulators in Drosophila S3 Cells;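 as to cell number change: cells counted by Cell Tracker Red CMTPX staining in the red channel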
Conditions: BODIPY lipid droplet fluorescence, 18-24 h; for cell number change: measured here: cell count max response, cells fed with added oleic acid
Outline: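 Drosophila S3 cells got compounds at several concentrations plus oleic acid (400 uM solution). Laser-scanning cytometry with 488 nm excitation read lipid droplets at 500-530 nm and cells at 575-640 nm. Percent activity was relative to 20 uM Triacsin C.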

[1] = measured here: cell number channel AC50, cells fed with added oleic acid
[2] = measured here: lipid fluorescence (Fed channel) AC50, cells fed with added oleic acid

Row | Compound | cell number change [%] | AC50 [1] | AC50 [2]
1 | O=C(OCC#CCSc1nnc(-c2cccc3ccccc23)o1)c1ccc(F)cc1 | 49.4 | 0.231 µM [rising, full curve, poor fit] | 0.366 µM [rising, full curve]
2 | O=c1cc(-c2ccc(Br)cc2)[nH][nH]1 |  | 0.13 µM [falling, full curve, poor fit] | 
3 | COC(=O)[C@@]12CCCCN1[C@H](c1ccc(-c3cc(C(C)=O)cs3)c(OC)c1)[C@H]1C(=O)N(C)C(=O)[C@H]12 | 19.6 | 0.231 µM [falling, full curve, poor fit] | 
4 | O=C(Cn1ccc2cc(S(=O)(=O)N3CCCC3)ccc21)NCc1ccccc1 | -5.73 |  | 0.0366 µM [rising, full curve, poor fit]
5 | Cc1ccc(OS(=O)(=O)c2c(C)nn(C)c2Cl)c(C)c1 |  |  | 0.82 µM [rising, single point]
6 | Cc1ccc(C(=O)NC2CC(C)(C)NC(C)(C)C2)cc1 | 17.9 |  | 29.1 µM [rising, single point]
7 | Cc1ccc(NC2CCCN(C(=O)c3cnsn3)C2)cc1C (centres undefined) | 66.2 | 18.4 µM [rising, partial curve] | 
8 | COc1ccc(C(C)(C)C)cc1NC(=O)CCN1C(=O)C2CCCCC2C1=O (centres undefined) | -43.7 | 20.6 µM [falling, partial curve, poor fit] | 1.03 µM [falling, full curve]
9 | CCN(CC)Cc1c(C(=O)N/N=C/c2cccc(OCc3ccc(F)cc3)c2)nnn1-c1nonc1N | 23.7 |  | 29.1 µM [falling, single point]
10 | COC(=O)c1ccc(NC(=O)COc2ccc3c(c2)OCO3)cc1 | 6.58 |  | 
11 | O=C(O)Cn1c(=O)c2c3c(sc2n(Cc2ccccc2F)c1=O)CCCC3 | 10.1 |  | 3.26 µM [rising, partial curve, poor fit]
12 | O=C(NCC1CCCO1)C(c1cccs1)N(C(=O)Cn1nnc(-c2cccs2)n1)C1CCCC1 (centres undefined) | -16.6 |  | 25.9 µM [falling, partial curve]
13 | O=C(NC(=S)Nc1ccccn1)c1cc(-c2ccccc2)nc2ccccc12 | 13 | 2.31 µM [rising, partial curve] | 2.06 µM [rising, partial curve]
14 | O=C(NCc1ccc(Cl)cc1)C1CC(O)CN1S(=O)(=O)c1ccc(Cl)cc1 (centres undefined) | 1.32 |  | 22.4 µM [falling, single point]
15 | COc1ccc(C)cc1NC(=O)C(NCC(O)c1ccccc1)c1ccccc1 (centres undefined) | 0.709 |  | 29.1 µM [rising, single point]
16 | COc1ccc(NC(=O)COc2cc(O)c3c(c2)OC(C)(C)CC3=O)cc1 | 17.2 |  | 
17 | Cc1nnc(SCC(=O)N2CC(=O)Nc3ccccc32)n1-c1ccccc1 | 0.897 |  | 29.1 µM [falling, single point]
18 | CCOc1ccc(S(=O)(=O)N(CC(=O)NCc2cccnc2)c2ccc(C)cc2)cc1 | 5.88 |  | 2.91 µM [falling, single point]
19 | CC1CCCCN1C(=O)C1CCCCN1S(=O)(=O)c1cccc([N+](=O)[O-])c1 (centres undefined) | -31.4 | 4.61 µM [falling, full curve, poor fit] | 32.6 µM [falling, partial curve, poor fit]

Row | Compound | cell number change [%] | AC50 [1] | AC50 [2]
20 | CC1CC(C)CN(CC(=O)N2CCc3[nH]c4ccccc4c3C2)C1 (centres undefined) |  |  | 18.4 µM [falling, single point]
21 | Cc1cc(C)c(NC(=O)CSc2nnc(Cc3cccn3C)n2-c2ccc(F)cc2)c(C)c1 | -8.23 |  | 16.4 µM [falling, single point]
22 | Cc1ccc(NC(=O)C2CCN(C(=O)c3ccccc3C)CC2)cc1 | 22.4 |  | 
23 | O=C(Nc1cccc2ccccc12)c1cnccn1 |  |  | 6.51 µM [falling, single point]
24 | CCc1occc(=O)c1Oc1cc(NN2CCCCC2)c([N+](=O)[O-])cc1[N+](=O)[O-] | 34.6 | 7.31 µM [rising, full curve, poor fit] | 29.1 µM [rising, single point]
25 | CC(=O)N(C(C)=O)c1ncc2c([nH]c3ccccc32)c1C#N |  | 0.291 µM [rising, partial curve, poor fit] | 0.58 µM [rising, single point]
26 | CCOc1ccc(C(=O)N/N=C/c2ccc(SC)cc2)cc1 | 5.17 |  | 0.517 µM [rising, full curve, poor fit]
27 | CCc1ccc(NC(=S)N2CCN(S(=O)(=O)c3ccccc3)CC2)cc1 | 21.1 | 0.164 µM [rising, full curve, poor fit] | 6.51 µM [rising, partial curve, poor fit]
28 | COc1ccc(C2C(C(=O)Nc3cccc(OC)c3)c3ccccc3C(=O)N2C)cc1 (centres undefined) |  |  | 6.51 µM [rising, partial curve]
29 | Clc1ncnc2c1oc1ccccc12 | -50.3 | 29.1 µM [falling, single point] | 1.16 µM [falling, full curve]
30 | Cc1cc(C(=O)CN2CCN(CC(=O)Nc3cccc(F)c3)CC2)c(C)n1C1CC1 | -12.2 | 0.231 µM [falling, full curve, poor fit] | 18.4 µM [falling, partial curve, poor fit]
31 | Cc1ccc(OCC(=O)Nc2cccc3nsnc23)c(C)c1 | 50 | 9.2 µM [rising, partial curve] | 1.64 µM [rising, partial curve]
32 | CCOC(=O)COc1cnc2ccccc2n1 | -10.8 |  | 29.1 µM [falling, single point]
33 | Cc1ccc(S(=O)(=O)c2c(O)c3ccc(C(=O)O)cc3[nH]c2=O)cc1 |  |  | 10.3 µM [falling, partial curve]
34 | COc1ccccc1CC(=O)OC(C)C(=O)Nc1ccc(S(=O)(=O)N2CCCCC2)cc1 (centres undefined) | 18.5 |  | 23.1 µM [falling, partial curve, poor fit]
35 | COc1ccccc1-n1nc(C(=O)O)c2ccccc2c1=O | -0.415 | 6.51 µM [falling, single point] | 
36 | COc1cccc(C(=O)Nc2nnc(S(=O)(=O)N(C)Cc3ccccc3)s2)c1 | -30 | 13 µM [falling, partial curve, poor fit] | 
37 | CC1CCCN(c2nc3c(c(=O)n(C)c(=O)n3C)n2Cc2ccccc2)C1 (centres undefined) | -9.48 |  | 0.184 µM [falling, full curve, poor fit]
38 | CNC(=O)/C(C#N)=c1\s/c(=C/C(=O)OC)c(=O)n1-c1ccccc1 | -12.3 |  | 7.31 µM [rising, partial curve, poor fit]

A draw from above in order of molecular weight, falling:
Row | Compound | cell number change [%] | AC50 [1] | AC50 [2]
34 | COc1ccccc1CC(=O)OC(C)C(=O)Nc1ccc(S(=O)(=O)N2CCCCC2)cc1 (centres undefined) | 18.5 |  | 23.1 µM [falling, partial curve, poor fit]
28 | COc1ccc(C2C(C(=O)Nc3cccc(OC)c3)c3ccccc3C(=O)N2C)cc1 (centres undefined) |  |  | 6.51 µM [rising, partial curve]
38 | CNC(=O)/C(C#N)=c1\s/c(=C/C(=O)OC)c(=O)n1-c1ccccc1 | -12.3 |  | 7.31 µM [rising, partial curve, poor fit]
32 | CCOC(=O)COc1cnc2ccccc2n1 | -10.8 |  | 29.1 µM [falling, single point]

Later entries.

Row | Compound | cell number change [%] | AC50 [1] | AC50 [2]
39 | COc1cc(NC(=O)COC(=O)c2n[nH]c3ccccc23)c(C)cc1[N+](=O)[O-] | 14.4 |  | 0.631 µM [rising, full curve, poor fit]
40 | CN(C)S(=O)(=O)c1ccc(NC(=O)C2CC3C=CC2C3)cc1 (centres undefined) |  |  | 0.00461 µM [falling, full curve, poor fit]
41 | COc1ccc(-c2nc(-c3ccccc3)[nH]c(=O)c2C#N)cc1 | -34 | 32.6 µM [falling, single point] | 
42 | C=CCn1c(SC2CCOC2=O)nc2sc(CC)cc2c1=O (centres undefined) | 18.2 |  | 
43 | CCN(CC)c1ccc(/C=N/NC(=O)c2cccc(S(=O)(=O)N3CCOCC3)c2)c(O)c1 | -37.6 |  | 29.1 µM [falling, single point]
44 | O=C(Nc1cccc(-c2nnc(-c3ccco3)o2)c1)c1ccccc1 | 29.8 |  | 
45 | O=C(OCC(=O)N1CCc2ccccc21)c1ccc[nH]c1=O | -22.2 |  | 13 µM [falling, single point]
46 | Nc1c(S(=O)(=O)c2ccccc2)c2nc3ccccc3nc2n1/N=C/c1ccco1 | -39.5 | 16.4 µM [falling, single point] | 29.1 µM [falling, single point]
47 | Cc1ccc(CNC(=O)COC(=O)COc2ccc(C#N)cc2)cc1 | -15.4 | 3.66 µM [falling, partial curve] | 6.51 µM [falling, single point]
48 | O=C(Nc1ccccc1N1CCOCC1)c1cc(Cl)c2c(c1)OCO2 | 1.38 |  | 0.0517 µM [rising, full curve, poor fit]
49 | O=C1COc2ccc(C(=O)CSc3nnc(Cc4cccs4)n3-c3ccccc3)cc2N1 |  | 0.461 µM [rising, partial curve, poor fit] | 
50 | Cc1ccc2oc(=O)c3cnn(CC(=O)N4CCCCC4C)c3c2c1 (centres undefined) |  | 0.092 µM [rising, full curve, poor fit] | 0.092 µM [rising, full curve, poor fit]
51 | CCN(CC(=O)Nc1cc(Cl)ccc1C)C(=O)CCOc1ccc(C)cc1 | 34.6 | 5.8 µM [rising, single point] | 0.146 µM [rising, partial curve, poor fit]
52 | O=C(CN1CCN(S(=O)(=O)c2cccc(F)c2)CC1)NCC1(N2CCOCC2)CCCCC1 | 33.9 |  | 29.1 µM [rising, single point]
53 | Cc1cccc(C)c1NC(=O)c1ccccc1C(=O)O | -0.586 |  | 
54 | COc1ccc(C(=O)N2CCCc3ccccc32)cc1OC | 24.5 |  | 3.26 µM [rising, partial curve]
55 | CCCN1C(=O)/C(=C/c2ccc(C)o2)SC1=Nc1ccc(OC)cc1 | 109 | 6.51 µM [rising, partial curve] | 
56 | O=C(CCl)N1CCN(S(=O)(=O)Cc2ccccc2)CC1 | -9.1 |  | 
